Assay results reported in PubChem BioAssay AID2685 (National Center for Advancing Translational Sciences (NCATS), 2010).
The other results are listed elsewhere or left out. Shown are side measurements of this screen, not its main read-out; they come without a call. The list favours compounds with an active or inconclusive main result. The note in brackets gives the kind of curve behind each potency; many fits are weak.

Experiment: qHTS Assay for Lipid Storage Modulators in Drosophila S3 Cells;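 on cell number change: cells counted by Cell Tracker Red CMTPX staining in the red channel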
Conditions: BODIPY lipid droplet fluorescence, 18-24 h; for cell number change: measured here: cell count max response, cells fed with added oleic acid
Method in brief: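 Drosophila S3 cells got compounds at several concentrations plus oleic acid (400 uM solution). Laser-scanning cytometry with 488 nm excitation read lipid droplets at 500-530 nm and cells at 575-640 nm. Percent activity was relative to 20 uM Triacsin C.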

[1] = measured here: lipid fluorescence (Fed channel) AC50, cells fed with added oleic acid
[2] = measured here: cell number channel AC50, cells fed with added oleic acid

Compound | cell number change | AC50 [1] | AC50 [2]
Cc1ccccc1C(=O)N(CC(=O)Nc1sc(C)c(C)c1C(N)=O)C1CCCC1 | -9.91% |  | 
Cc1ccc2c(C)c(C(=O)N3CCCCC3CO)oc2c1C (stereo not given) | 6.42% | 3.66 µM [rising, single point] | 
CC(=O)Nc1ccc(C(=O)CSc2nnc(C)o2)cc1 | -22.4% | 0.092 µM [falling, full curve, poor fit] | 
CC1CCN(S(=O)(=O)c2csc(C(=O)Nc3ccccc3)c2)CC1 | 15% | 6.51 µM [falling, single point] | 
COc1ccc([C@H]2CC(=O)C=C(c3cccc(C(C)C)c3)C2)cc1 | -16.5% | 3.26 µM [falling, full curve] | 
CC1CCCN(C(=S)Nc2ccc(F)cc2)C1 (stereo not given) | -51.5% | 0.366 µM [falling, full curve] | 1.03 µM [falling, full curve]
Cc1c(Cl)cccc1NC(=S)NCCc1ccc(C(F)(F)F)cc1 | -41% | 8.2 µM [falling, partial curve] | 11.6 µM [falling, partial curve]
COc1ccc(OCCC(=O)NCc2ccccc2)cc1 |  | 0.184 µM [falling, full curve, poor fit] | 
CCCc1cc(=O)[nH]c(Nc2cc(OC)ccc2OC)n1 | 1.82% | 4.11 µM [rising, partial curve, poor fit] | 
CN1CCC(=C2c3ccccc3C=Cc3ccccc32)CC1 | -9.44% |  | 6.51 µM [falling, single point]
COc1cccc(NC(=O)C(=O)c2cn(CC(=O)N3CCCC3)c3ccccc23)c1 | 9.73% | 6.51 µM [rising, partial curve] | 
COc1ccc2ccccc2c1C(=O)/C=C\c1ccoc1 | 0.689% |  | 3.66 µM [rising, single point]
CCCCn1c(N)c(N(CCOC)C(=O)c2ccc(N3C(=O)CCC3=O)cc2)c(=O)[nH]c1=O | -22% | 5.17 µM [falling, full curve, poor fit] | 
CC(=O)Oc1ccc(-c2ccc(C(=O)O)cc2)cc1 | -4.06% | 25.9 µM [falling, partial curve] | 
O=C(NCCc1ccc(Cl)cc1)c1cnc2n(c1=O)CCS2 | 41.4% | 8.2 µM [rising, partial curve] | 6.51 µM [rising, partial curve]
COCCN(CCOC)S(=O)(=O)c1ccc(C(=O)Nc2nc(-c3ccncc3)cs2)cc1 | 36.5% |  | 
COc1cc(OC)c(C2C(C#N)=C(C)NC(C)=C2C#N)c(C(=O)O)c1 | -13.1% | 4.11 µM [falling, full curve] | 
CC1=NNC(=O)C1CCC(=O)N/N=C(\C)c1ccc(Cl)cc1 (stereo not given) | 20.2% | 4.61 µM [rising, partial curve, poor fit] | 
CCOC(=O)c1ccc(C(=S)N2CCCC2)cc1 | 2.78% |  | 
CCOc1ccc(N2C(=O)Nc3ccc(Br)cc3C2(O)C(=O)NCCN(C)C)cc1 (stereo not given) | -22.5% |  | 0.13 µM [falling, full curve, poor fit]
O=C(NCCOc1ccccc1F)c1ccccc1SCc1ccc(F)cc1 | 12.8% |  | 

Compound | cell number change | AC50 [1] | AC50 [2]
COc1ccc(N(CC(=O)NCc2ccc(C)cc2)S(=O)(=O)c2c(C)nn(C)c2C)cc1 | 7.67% | 14.6 µM [rising, partial curve, poor fit] | 
Cc1cc(NC(=O)CCC(=O)N(CC(=O)NCC2CCCO2)c2ccccc2)no1 (stereo not given) | 12.1% |  | 
CCC(=O)N1c2ccccc2NC2=C(C(=O)CC(C)(C)C2)C1c1cccnc1 (stereo not given) | 4.03% | 1.46 µM [rising, partial curve, poor fit] | 
COc1cc(/C=C2\SC(=S)N(Nc3ncc(C(F)(F)F)cc3Cl)C2=O)ccc1O | -36.4% | 29.1 µM [falling, single point] | 29.1 µM [falling, single point]
CCCCCOC(=O)Cn1c(N2CCOCC2)nc2c1c(=O)[nH]c(=O)n2C | 13.9% | 0.116 µM [rising, single point] | 6.51 µM [rising, single point]
Cc1cccc(C(=O)OCC(=O)NCC2CCCO2)c1O (stereo not given) |  | 29.1 µM [rising, single point] | 
CCn1cc(Br)c(C(=O)NCc2ccco2)n1 | 5.61% | 23.1 µM [falling, partial curve, poor fit] | 
O=C(Nc1ccc(S(=O)(=O)NCc2ccco2)cc1)c1ccc2ccccc2n1 |  | 1.84 µM [rising, partial curve] | 
c1ccc(CSc2nnc3ccc(-c4ccco4)nn23)nc1 |  | 6.51 µM [falling, single point] | 
CN(C(=O)c1cccc(Nc2ccc(-c3ccc4c(c3)OCCO4)nn2)c1)C1CCCCC1 | -24.7% | 29.1 µM [falling, single point] | 
COc1ccc(Br)cc1CNC(=O)CCC(=O)N1CCSc2ccccc21 | -19.3% | 20.6 µM [falling, single point] | 
CCOc1cc(/C=N/NC(=O)c2ccncc2)ccc1OC(=O)c1ccco1 | -17.6% | 9.2 µM [falling, single point] | 
O=C(NCCCN1CCOCC1)c1cc(-c2ccc(Br)cc2)nc2ccccc12 | 28.1% | 20.6 µM [rising, single point] | 
O=C(CN1C(=O)CCS(=O)(=O)c2ccccc21)Nc1cccc(F)c1 |  | 0.517 µM [falling, full curve] | 
O=C(NCCCN1CCCC1)c1ccc2c(c1)N(Cc1ccccc1)CCS2 | 14.6% |  | 
CSc1ccc(S(=O)(=O)Nc2ccccc2C(=O)N2CCOCC2)cc1 | -14.1% | 11.6 µM [falling, partial curve, poor fit] | 
Cc1nc2ccccc2n(CC(=O)Nc2cc(Cl)cc(Cl)c2)c1=O |  | 1.46 µM [rising, partial curve] | 2.91 µM [rising, single point]
Cc1nc(C)c(-c2nnc(-c3cccc(S(=O)(=O)N(C)C)c3)o2)cc1C(=O)NN | 2.13% |  | 
O=C1c2ccc([N+](=O)[O-])cc2C(=O)N1c1c[nH]c(=O)[nH]c1=O | -12.4% | 6.51 µM [falling, single point] | 
Cc1cc(NC(=O)c2nn3cccnc3c2Cl)no1 |  | 3.66 µM [rising, partial curve] | 2.59 µM [rising, partial curve]
CN(C)CCOC(=O)C12CC3CC(CC(C3)C1)C2 | 5.88% |  | 

Compound | cell number change | AC50 [1] | AC50 [2]
O=C(CCS(=O)(=O)c1cccc2nonc12)N1CCOCC1 | -5.54% | 32.6 µM [falling, partial curve, poor fit] | 
CCOc1ccc(S(=O)(=O)N2CCC(C(=O)NCc3ccco3)CC2)cc1C | 9.66% | 0.00461 µM [rising, full curve, poor fit] | 
CCC(C)OC(=O)C[N+](C)(C)CCOC1CC2CCC1(C)C2(C)C (stereo not given) | -37.1% | 2.06 µM [falling, partial curve] | 25.9 µM [falling, partial curve, poor fit]
Cc1ccc(NC(=O)COc2ccc(CCO)cc2-n2nc3ccccc3n2)cc1C | -30% | 20.6 µM [falling, single point] | 29.1 µM [falling, single point]
CC(C)(C)c1nnc(NS(=O)(=O)c2cc(Cl)ccc2Cl)s1 | -10.3% | 0.13 µM [rising, full curve, poor fit] | 
COc1cc(C)c(S(=O)(=O)NC2CC(C)(C)NC(C)(C)C2)cc1C | 8.89% | 6.51 µM [rising, single point] | 
O=c1[nH]c2ccccc2n2c(=S)[nH]nc12 | 22.6% | 0.58 µM [falling, single point] | 
COc1cccc(/C=C/C(=O)OCC(=O)c2ccc(C)c(C)c2)c1OC | 4.81% | 14.6 µM [rising, partial curve] | 
CCc1noc(C)c1C(=O)OCC(=O)Nc1nc(-c2ccc(F)c(F)c2)cs1 | 9.65% | 6.51 µM [rising, partial curve] | 
Cc1cc(C(=O)CC#N)c(C)n1-c1ccc(OC(F)F)cc1 | -8.5% |  | 
O=C1CNC(=O)/C(=C\c2ccccc2)N1 | 23.3% | 0.58 µM [rising, partial curve, poor fit] | 
CC(=O)c1c(N2CCCCC2)nc(=S)n(-c2ccccc2)c1C | -7.25% | 0.651 µM [falling, full curve] | 
CCC(C)N(C(=O)COC(=O)CSc1ccc(C)c(C)c1)C1CCS(=O)(=O)C1 (stereo not given) | -2.98% |  | 
CC(C)c1ccc(N2C(=O)/C(=C/N(C)C)SC2=S)cc1 | -96.2% | 4.61 µM [falling, partial curve] | 9.2 µM [falling, partial curve]
CCS(=O)(=O)N1N=C(c2cccc(NS(C)(=O)=O)c2)CC1c1cccs1 (stereo not given) |  | 6.51 µM [rising, single point] | 0.116 µM [falling, full curve, poor fit]
O=c1ccc(/C=C/c2ccccc2)nn1Cc1ccc(F)cc1 | 32.6% | 6.51 µM [falling, single point] | 
Cn1c(SCC(=O)Nc2ccc3c(c2)OCCO3)nnc1-c1cccnc1 | 31.6% |  | 29.1 µM [rising, single point]
Cc1ccc(NC(=O)CN2C(=O)C(=O)N(C3CCCC3)C2=O)cc1Cl | -24.6% | 1.3 µM [falling, partial curve] | 
O=C(CSc1nccc(=O)[nH]1)Nc1cc(C(F)(F)F)ccc1N1CCOCC1 | 7.69% |  | 5.17 µM [rising, single point]

Structural class, the compounds so far containing a cyano group.
Compound | cell number change | AC50 [1] | AC50 [2]
COc1cc(OC)c(C2C(C#N)=C(C)NC(C)=C2C#N)c(C(=O)O)c1 | -13.1% | 4.11 µM [falling, full curve] | 
Cc1cc(C(=O)CC#N)c(C)n1-c1ccc(OC(F)F)cc1 | -8.5% |  | 
